{
  "source": "patent US11414454B2",
  "about": "“Compositions, methods, and systems for affinity-based protein identification and purification” (Auctus Biologies, Inc., priority 2017, dated 2022)",
  "tested_on": "RPtag (large)",
  "assay": "Association/dissociation kinetics of RPtag (small) peptides with RPtag (large) by fluorescence anisotropy",
  "parameters": "species or system Thermoanaerobacter tengcongensis",
  "conditions": "equilibrium non-binding S / binding S* state",
  "experimental": "Panel a depicts representative association rate kinetics traces varying native RPtag small. Rhodamine labeled RPtag small at the indicated concentration was incubated with unlabeled RPtag large and the association measured by fluorescence anisotropy. L-S complex concentration was calculated by the equation (r−rmin)/(rmax−rmin)*[S] where r is the measured anisotropy, rmin is the anisotropy in the absence of any RPtag large, rmax is the anisotropy measured in the presence of at saturating RPtag large, and [S] is the total concentration of RPtag small used in the experiment. […] Dashed cyan lines are simulations of the mechanism shown in f using the rate constants detailed herein. The concentrations in the simulations were multiplied by a correction factor of 0.925, which is well within the 90% purity specification of the purchased peptide.\nLS complex was performed by incubating 1000 nM RPtag large with the indicated concentrations of rhodamine labeled RPtag small. At the start of the experiment, 0.1 mM unlabeled native RPtag small was added and fluorescence anisotropy monitored. Data processing was done as in panel a, except the red fits were to the single exponential decay equation y=y0+A*exp(−b*t). As expected, the initial dissociation rates were linear with respect to the LS complex.\nFitting to a line yields a rate constant (koff)=0.0091 min^−1 (FIG. 9 panel e). In good agreement, when the kinetics are fit with a first order rate law, a rate constant of 0.012±0.002 min^−1 (n=15) was observed. […] Panel e is a graph of the initial rates of the traces represented in d. Slope of the fit line is 0.0091 min^−1. Data are mean±SE (n=3).\nThe library of mutant RPtag(small) peptides, described above, was next analyzed to measure off rates (koff). The on rate was also calculated from measured koff and Kd (S*-LS transition), except instead of using unlabeled native peptide as the competitor, we used unlabeled Nd2,P5A,E18A (the tightest binding RPtag(small) peptide identified). […] However, there were notable exceptions. […]",
  "note": "No end group written: not given here.",
  "data": [
    {"compound": "CC[C@H](C)[C@H](NC(=O)[C@H](CC(C)C)NC(=O)[C@H](CCCCN)NC(=O)[C@H](CC(C)C)NC(=O)[C@H](CCC(=O)O)NC(=O)[C@H](C)NC(=O)[C@@H]1CCCN1C(=O)[C@@H](NC(=O)[C@H](Cc1ccccc1)NC(=O)[C@H](CC(N)=O)NC(=O)[C@@H]1CCCN1C(=O)[C@@H](NC(=O)[C@H](CCCCN)NC(=O)[C@H](CCC(=O)O)NC(=O)[C@H](C)N)[C@@H](C)CC)[C@@H](C)CC)C(=O)N[C@H](C(=O)N[C@@H](CCCCN)C(=O)N[C@@H](CCC(=O)O)C(=O)N[C@@H](CC(N)=O)C(=O)N[C@H](C(=O)N[C@@H](CCC(N)=O)C(=O)O)C(C)C)[C@@H](C)O", "note": "[g1a]", "values": [
      {"measurement": "Keq (S-S*)", "result": "2.3 ± 0.1"}
    ]},
    {"compound": "GEKIPNFIPAELKLITKENV [Cd1]", "values": [
      {"measurement": "Keq (S-S*)", "result": "2.5 ± 0.3"}
    ]},
    {"compound": "KIANFIPAELKLITKANVQ [Nd2, p5a, e18a, KIANFIPAELKLITKANVQ]", "values": [
      {"measurement": "Keq (S-S*)", "result": "0.3 ± 0.1"}
    ]}
  ]
}
